No constants are given. Whether binding was seen depends on the method and setting. Binding seen in cells or lysates may run through a third protein. Some results given as binding are weak or reduced against the parent protein; the word gives no strength.
Molecular target: Tonicity-responsive enhancer-binding protein (TonEBP) (mouse (endogenous in 3T3-L1)) (UniProt Q9WV30)
Experiment: co-IP; total lysates of 3T3-L1 adipocytes in RIPA buffer; antibody overnight at 4 °C, protein A/G agarose beads 2 h, three washes with RIPA buffer; immunoblot with anti-DNMT1 and anti-TonEBP

By UniProt entry, the sequences of proteins in these tests, tags left out.
UniProt Q9WV30: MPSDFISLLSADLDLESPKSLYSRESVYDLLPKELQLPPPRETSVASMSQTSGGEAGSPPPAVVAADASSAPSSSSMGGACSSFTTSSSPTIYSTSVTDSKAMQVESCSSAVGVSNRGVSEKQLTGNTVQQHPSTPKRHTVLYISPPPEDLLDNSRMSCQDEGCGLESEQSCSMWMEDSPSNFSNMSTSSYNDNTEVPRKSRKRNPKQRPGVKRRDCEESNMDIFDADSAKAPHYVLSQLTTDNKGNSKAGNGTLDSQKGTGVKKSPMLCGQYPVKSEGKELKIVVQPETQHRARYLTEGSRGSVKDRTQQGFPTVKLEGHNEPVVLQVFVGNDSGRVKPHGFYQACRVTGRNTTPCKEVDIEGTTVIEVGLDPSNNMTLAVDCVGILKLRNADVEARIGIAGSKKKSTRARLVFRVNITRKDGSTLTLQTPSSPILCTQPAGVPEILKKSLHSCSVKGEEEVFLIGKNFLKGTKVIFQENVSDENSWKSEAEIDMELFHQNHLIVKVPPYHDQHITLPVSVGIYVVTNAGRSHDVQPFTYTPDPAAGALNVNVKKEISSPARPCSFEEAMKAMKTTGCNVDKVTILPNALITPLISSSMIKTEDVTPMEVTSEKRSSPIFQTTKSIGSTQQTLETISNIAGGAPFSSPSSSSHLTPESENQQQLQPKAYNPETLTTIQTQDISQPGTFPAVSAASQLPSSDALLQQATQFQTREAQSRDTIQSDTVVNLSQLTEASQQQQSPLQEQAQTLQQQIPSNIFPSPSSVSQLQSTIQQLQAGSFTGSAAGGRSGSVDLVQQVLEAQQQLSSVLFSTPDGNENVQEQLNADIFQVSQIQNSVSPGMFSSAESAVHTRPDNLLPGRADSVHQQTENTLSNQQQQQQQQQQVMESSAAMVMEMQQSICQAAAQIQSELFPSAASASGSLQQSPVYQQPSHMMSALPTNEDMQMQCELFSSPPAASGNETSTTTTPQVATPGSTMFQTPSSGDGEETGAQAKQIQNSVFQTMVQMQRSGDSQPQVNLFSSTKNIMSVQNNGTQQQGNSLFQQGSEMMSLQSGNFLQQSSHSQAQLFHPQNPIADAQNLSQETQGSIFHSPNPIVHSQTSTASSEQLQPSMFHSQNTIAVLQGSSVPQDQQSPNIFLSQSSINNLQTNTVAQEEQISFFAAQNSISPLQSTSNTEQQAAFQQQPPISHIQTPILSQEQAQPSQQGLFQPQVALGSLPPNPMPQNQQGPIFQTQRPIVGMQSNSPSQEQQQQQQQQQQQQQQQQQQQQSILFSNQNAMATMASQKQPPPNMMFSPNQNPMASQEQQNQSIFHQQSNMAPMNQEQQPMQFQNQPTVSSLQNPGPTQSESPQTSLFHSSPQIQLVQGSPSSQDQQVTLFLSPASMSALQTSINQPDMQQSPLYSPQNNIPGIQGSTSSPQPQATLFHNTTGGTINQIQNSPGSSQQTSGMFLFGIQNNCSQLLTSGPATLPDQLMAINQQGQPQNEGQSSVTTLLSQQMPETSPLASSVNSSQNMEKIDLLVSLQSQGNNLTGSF
UniProt P13864: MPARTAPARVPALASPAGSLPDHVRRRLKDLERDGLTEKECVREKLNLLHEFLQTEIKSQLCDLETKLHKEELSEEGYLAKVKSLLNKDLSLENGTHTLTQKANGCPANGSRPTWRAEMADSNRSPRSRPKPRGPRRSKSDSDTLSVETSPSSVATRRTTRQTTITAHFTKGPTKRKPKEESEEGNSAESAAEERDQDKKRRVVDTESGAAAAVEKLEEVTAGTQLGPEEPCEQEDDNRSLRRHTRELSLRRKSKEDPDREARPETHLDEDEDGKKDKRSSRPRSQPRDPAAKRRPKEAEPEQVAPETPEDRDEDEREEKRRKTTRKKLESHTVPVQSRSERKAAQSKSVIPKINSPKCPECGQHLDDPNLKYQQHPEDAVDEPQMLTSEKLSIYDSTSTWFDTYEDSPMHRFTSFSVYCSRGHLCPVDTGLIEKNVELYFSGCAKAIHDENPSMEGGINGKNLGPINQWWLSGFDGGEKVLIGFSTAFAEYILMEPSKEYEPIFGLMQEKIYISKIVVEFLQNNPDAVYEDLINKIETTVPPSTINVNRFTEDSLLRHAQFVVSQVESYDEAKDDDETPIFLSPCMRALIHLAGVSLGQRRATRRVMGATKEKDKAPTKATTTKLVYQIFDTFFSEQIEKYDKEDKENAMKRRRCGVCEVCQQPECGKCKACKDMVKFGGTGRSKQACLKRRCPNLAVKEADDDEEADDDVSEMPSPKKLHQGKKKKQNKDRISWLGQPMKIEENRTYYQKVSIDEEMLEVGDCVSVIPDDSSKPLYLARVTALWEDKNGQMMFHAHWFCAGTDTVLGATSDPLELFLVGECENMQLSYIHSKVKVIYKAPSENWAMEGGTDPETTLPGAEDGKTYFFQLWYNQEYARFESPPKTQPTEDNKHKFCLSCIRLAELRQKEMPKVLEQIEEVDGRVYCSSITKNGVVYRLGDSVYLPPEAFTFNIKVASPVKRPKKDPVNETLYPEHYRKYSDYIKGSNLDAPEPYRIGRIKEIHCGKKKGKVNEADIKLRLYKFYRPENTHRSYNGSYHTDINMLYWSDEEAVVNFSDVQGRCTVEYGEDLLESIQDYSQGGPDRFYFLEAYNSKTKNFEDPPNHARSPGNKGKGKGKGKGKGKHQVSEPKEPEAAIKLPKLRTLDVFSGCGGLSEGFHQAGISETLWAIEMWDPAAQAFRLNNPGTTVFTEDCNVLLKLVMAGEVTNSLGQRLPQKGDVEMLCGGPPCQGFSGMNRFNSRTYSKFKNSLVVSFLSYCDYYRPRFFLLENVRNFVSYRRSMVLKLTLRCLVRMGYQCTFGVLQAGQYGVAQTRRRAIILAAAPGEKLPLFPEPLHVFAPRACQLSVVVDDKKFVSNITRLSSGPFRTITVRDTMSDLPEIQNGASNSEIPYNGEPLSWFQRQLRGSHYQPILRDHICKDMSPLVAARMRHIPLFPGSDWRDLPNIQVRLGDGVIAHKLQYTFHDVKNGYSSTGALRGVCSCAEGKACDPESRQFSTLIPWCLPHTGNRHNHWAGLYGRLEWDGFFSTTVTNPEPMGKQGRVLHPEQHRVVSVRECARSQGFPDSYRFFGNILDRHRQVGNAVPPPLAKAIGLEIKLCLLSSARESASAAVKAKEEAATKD

With “DNMT1 DNA methylase (from UniProt P13864 1-1620) (enzyme)” the binding was “binds”.

From publication PMC6684655
